Results are given in words; binding and its absence hold for the method and conditions named. Binding seen in cells or lysates may run through a third protein. Some results given as binding are weak or reduced against the parent protein; the word gives no strength. Tags and fused reporters may be left off the sequences shown.

Amino acid sequences for entries named in this document (tags omitted).
UniProt Q97ZF1: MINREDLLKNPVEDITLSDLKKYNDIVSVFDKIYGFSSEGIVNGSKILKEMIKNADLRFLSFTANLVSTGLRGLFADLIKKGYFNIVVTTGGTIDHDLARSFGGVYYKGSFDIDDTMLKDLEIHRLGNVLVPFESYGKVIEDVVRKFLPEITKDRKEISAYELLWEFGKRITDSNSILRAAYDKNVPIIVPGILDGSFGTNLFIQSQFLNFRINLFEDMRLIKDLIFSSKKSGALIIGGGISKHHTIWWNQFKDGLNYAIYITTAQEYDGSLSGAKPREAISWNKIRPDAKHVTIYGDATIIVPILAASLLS

In the assay the target is T1, N-His-aIF5A produced in Sso PH1-16 (pMJ05-N-His-aIF5A) (Sulfolobus solfataricus) (UniProt Q97ZE8).
T1 sequence (chain, modified, recognised by anti-hypusine antibodies (hypusine or deoxyhypusine)): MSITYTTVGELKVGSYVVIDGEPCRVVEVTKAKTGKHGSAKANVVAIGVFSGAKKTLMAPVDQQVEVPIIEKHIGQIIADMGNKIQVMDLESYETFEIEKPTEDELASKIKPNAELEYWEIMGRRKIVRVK
As to the kind of experiment: pull-down; more stringent purification procedures of His-tagged aIF5A from Sso PH1-16 lysates (not shown).

“Deoxyhypusine synthase (aDHS) (from UniProt Q97ZF1 1-312) (enzyme)”: the binding entry is on record as “binds”.
